Laboratory results reported in paper PMC11746084.
No constants are given. Whether binding was seen depends on the method and setting. In cells and extracts the contact can be indirect. Some binding calls cover weakened binding; strength is not graded here.

Amino acid sequences for entries named in this document (tags omitted).
UniProt Q9DC51: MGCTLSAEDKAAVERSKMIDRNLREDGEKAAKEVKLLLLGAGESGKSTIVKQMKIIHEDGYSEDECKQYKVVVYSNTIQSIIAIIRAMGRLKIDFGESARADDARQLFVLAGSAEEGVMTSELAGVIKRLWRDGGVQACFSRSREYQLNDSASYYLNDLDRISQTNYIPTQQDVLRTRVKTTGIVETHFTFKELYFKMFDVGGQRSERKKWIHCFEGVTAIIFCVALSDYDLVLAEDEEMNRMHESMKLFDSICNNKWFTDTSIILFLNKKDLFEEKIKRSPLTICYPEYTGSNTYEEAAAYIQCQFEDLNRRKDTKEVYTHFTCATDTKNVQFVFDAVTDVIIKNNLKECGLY
UniProt P08754: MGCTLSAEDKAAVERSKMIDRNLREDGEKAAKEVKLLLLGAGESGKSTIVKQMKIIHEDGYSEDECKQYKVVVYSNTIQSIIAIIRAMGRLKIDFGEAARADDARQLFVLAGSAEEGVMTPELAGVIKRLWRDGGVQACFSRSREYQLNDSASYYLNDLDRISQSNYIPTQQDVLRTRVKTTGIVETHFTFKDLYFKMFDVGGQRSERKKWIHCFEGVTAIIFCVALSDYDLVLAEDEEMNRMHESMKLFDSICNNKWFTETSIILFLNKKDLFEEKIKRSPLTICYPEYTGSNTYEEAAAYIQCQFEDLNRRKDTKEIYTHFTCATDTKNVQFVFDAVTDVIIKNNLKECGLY
UniProt P63096: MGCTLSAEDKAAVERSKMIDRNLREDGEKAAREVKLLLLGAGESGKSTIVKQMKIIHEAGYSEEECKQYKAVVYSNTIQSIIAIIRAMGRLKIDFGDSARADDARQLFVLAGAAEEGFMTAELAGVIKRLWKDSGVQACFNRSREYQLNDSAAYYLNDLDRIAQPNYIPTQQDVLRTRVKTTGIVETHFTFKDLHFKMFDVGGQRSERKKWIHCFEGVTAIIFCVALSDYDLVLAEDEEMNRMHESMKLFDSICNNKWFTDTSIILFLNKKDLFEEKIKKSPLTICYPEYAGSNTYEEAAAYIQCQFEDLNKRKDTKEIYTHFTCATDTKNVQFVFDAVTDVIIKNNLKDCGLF
UniProt B2RSH2: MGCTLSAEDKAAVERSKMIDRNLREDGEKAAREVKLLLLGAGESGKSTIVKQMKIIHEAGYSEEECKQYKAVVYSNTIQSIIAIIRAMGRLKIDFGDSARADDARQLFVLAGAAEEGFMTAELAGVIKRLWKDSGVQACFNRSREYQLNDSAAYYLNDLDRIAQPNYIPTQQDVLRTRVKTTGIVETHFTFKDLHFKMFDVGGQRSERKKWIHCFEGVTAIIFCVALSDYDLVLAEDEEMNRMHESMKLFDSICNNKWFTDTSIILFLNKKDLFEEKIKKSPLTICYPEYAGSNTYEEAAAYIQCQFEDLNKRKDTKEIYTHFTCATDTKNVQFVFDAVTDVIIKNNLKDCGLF

B1: Gab1 (human, endogenous in EoL-1 cells) (protein, UniProt Q13480 1-694)
chain: MSGGEVVCSGWLRKSPPEKKLKRYAWKRRWFVLRSGRLTGDPDVLEYYKNDHAKKPIRIIDLNLCQQVDAGLTFNKKEFENSYIFDINTIDRIFYLVADSEEEMNKWVRCICDICGFNPTEEDPVKPPGSSLQAPADLPLAINTAPPSTQADSSSATLPPPYQLINVPPHLETLGIQEDPQDYLLLINCQSKKPEPTRTHADSAKSTSSETDCNDNVPSHKNPASSQSKHGMNGFFQQQMIYDSPPSRAPSASVDSSLYNLPRSYSHDVLPKVSPSSTEADGELYVFNTPSGTSSVETQMRHVSISYDIPPTPGNTYQIPRTFPEGTLGQTSKLDTIPDIPPPRPPKPHPAHDRSPVETCSIPRTASDTDSSYCIPTAGMSPSRSNTISTVDLNKLRKDASSQDCYDIPRAFPSDRSSSLEGFHNHFKVKNVLTVGSVSSEELDENYVPMNPNSPPRQHSSSFTEPIQEANYVPMTPGTFDFSSFGMQVPPPAHMGFRSSPKTPPRRPVPVADCEPPPVDRNLKPDRKVKPAPLEIKPLPEWEELQAPVRSPITRSFARDSSRFPMSPRPDSVHSTTSSSDSHDSEENYVPMNPNLSSEDPNLFGSNSLDGGSSPMIKPKGDKQVEYLDLDLDSGKSTPPRKQKSSGSGSSVADERVDYVVVDQQKTLALKSTREAWTDGRQSTESETPAKSVK

What was measured:
[1] = biological target: T1, IL-5Rα (mouse, endogenous in MEFs) (mouse (endogenous in MEFs)) (UniProt P21183); assay: co-IP; WT and Gαi1/3 DKO MEFs treated with IL-5 (25 ng/mL) for 5 min; lysate, primary antibody overnight at 4°C, Agarose A/G beads, washed with PBS, western blotting
T1 sequence: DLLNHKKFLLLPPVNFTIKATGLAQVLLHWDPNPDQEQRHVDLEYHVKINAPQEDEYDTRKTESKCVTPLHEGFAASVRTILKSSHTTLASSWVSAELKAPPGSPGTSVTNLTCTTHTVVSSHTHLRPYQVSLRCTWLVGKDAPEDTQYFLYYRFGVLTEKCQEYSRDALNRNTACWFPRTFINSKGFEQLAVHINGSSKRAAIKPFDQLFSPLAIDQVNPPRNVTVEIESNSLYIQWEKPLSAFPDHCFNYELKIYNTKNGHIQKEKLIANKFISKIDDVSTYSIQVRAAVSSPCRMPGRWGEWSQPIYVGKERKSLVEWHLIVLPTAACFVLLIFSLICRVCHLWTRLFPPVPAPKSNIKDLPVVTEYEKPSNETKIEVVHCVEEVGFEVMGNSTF

[2] = biological target: T2, IL-5Rα (human, endogenous in EoL-1 cells) (human (endogenous in EoL-1)) (UniProt Q01344); assay: co-IP; EoL-1 cells treated with GM-CSF (50 ng/mL) and IL-5 (50 ng/mL) for 5 min; lysate, primary antibody overnight at 4°C, Agarose A/G beads, washed with PBS, western blotting
T2 sequence: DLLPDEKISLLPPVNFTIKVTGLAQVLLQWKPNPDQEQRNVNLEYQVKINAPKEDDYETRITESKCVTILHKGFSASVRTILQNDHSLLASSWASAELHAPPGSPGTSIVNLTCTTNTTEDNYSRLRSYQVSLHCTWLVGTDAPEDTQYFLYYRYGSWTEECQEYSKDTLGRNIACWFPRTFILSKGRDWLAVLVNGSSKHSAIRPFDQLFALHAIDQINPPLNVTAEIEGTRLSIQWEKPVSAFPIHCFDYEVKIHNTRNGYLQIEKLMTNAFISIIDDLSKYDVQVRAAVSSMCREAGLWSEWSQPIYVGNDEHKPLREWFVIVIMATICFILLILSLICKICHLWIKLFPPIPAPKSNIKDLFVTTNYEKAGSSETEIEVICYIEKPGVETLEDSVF

| Molecule | binding [1] | binding [2] |
| --- | --- | --- |
| Gαi3 (mouse, endogenous in MEFs) (from UniProt Q9DC51 1-354) | binds |  |
| Gαi3 (human, endogenous in EoL-1 cells) (from UniProt P08754 1-354) |  | binds |
| Gαi1 (human, endogenous in EoL-1 cells) (from UniProt P63096 1-354) |  | binds |
| Gαi1 (mouse, endogenous in MEFs) (from UniProt B2RSH2 1-354) | binds |  |
| B1 |  | binds |
